Measured values taken from US20020065210A1.
Results are given in words; binding and its absence hold for the method and conditions named. Binding seen in cells or lysates may run through a third protein. Some results given as binding are weak or reduced against the parent protein; the word gives no strength.

The chains behind the UniProt entries cited, without tags or fusion partners. Residues count along the entry.
UniProt P48023, residues 103-281: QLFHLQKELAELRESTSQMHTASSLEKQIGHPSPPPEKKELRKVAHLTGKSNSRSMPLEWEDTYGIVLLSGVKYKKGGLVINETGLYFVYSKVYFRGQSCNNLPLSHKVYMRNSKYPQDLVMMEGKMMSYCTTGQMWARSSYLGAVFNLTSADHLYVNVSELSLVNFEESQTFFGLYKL
UniProt P25445, residues 26-173: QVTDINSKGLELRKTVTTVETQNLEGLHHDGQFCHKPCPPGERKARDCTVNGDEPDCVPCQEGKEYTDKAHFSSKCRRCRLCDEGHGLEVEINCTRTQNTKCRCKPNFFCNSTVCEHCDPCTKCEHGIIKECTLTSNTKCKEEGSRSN

Biological target: purified, soluble Fas ligand (Alexis Biochemicals) (UniProt P48023)
Assay: co-immunoprecipitation with protein A-sepharose, anti-Fas ligand immunoblot

binding: binds
Substance: Fc-tagged Fas ectodomain (from UniProt P25445 26-173) (Fc fusion)
